Test results from patent publication US12133900B2, “Synthesis and composition of amino acid linking groups conjugated to compounds used for the targeted imaging of tumors” (Purdue Research Foundation, priority 2013, dated 2024).

Assay: Dye fluorescence imaged through 1 cm porcine muscle
Details: 100 nM dye in PBS under 1 cm porcine muscle

SMILES: CC1(C)C(/C=C/C2=C(Oc3ccc(S(=O)(=O)O)cc3)C(=C/C=C3/N(CCCCS(=O)(=O)O)c4ccc(S(=O)(=O)[O-])cc4C3(C)C)/CCC2)=[N+](CCCCCC(=O)O)c2ccc(S(=O)(=O)O)cc21 [IR800CW]
- fluorescent signal through tissue: brightest fluorescent signal
